These are yes or no findings as the source states them, for the method shown. Binding seen in cells or lysates may run through a third protein. A yes stands for co-enrichment or nearness to the bait. Other partners may have been found. Tags and fused reporters may be left off the sequences shown.
B1: CABCOCO1 protein in the testes of Ccdc189-EGFP mice (protein, UniProt Q8CDT7 1-208)
chain: MNFSIEQYSKFMTLLDMLLHNLQTLHMSLEDSIKWLGEVMAEIGPNHSQKSEDFHVFEVKEANAIIDYLKISLFQHYRLYEFLFYSTREEIVIGTEQTIEVVKPADYPFPAPLEEGISLDTYSTFIEPLPTPDMEQKVLDQEQGTQEALLESEMREEDPLGGFTIDDVKSALERVTDEVLISMQKEISEKLQVQEEAFNARIEKLKKA
B2: IFT88 protein in the testes of Ccdc189-EGFP mice (protein, UniProt Q61371 1-824)
chain: MENVHLAPETDEDDLYSGFNDYNPAYDTEELENDTGFQQAVRTSHGRRPPVTAKIPSTAVSRPIATGYGSKTSLTSSMGRPMTGTIQDGVARPMTAVRAAGFSKAALRGSAFDPLGQSRGPAPPLEAKNEDSPEEKIRQLEKKVNELVEESCIANSCGDLKLALEKAKDAGRKERVLVRQREQVTSPENINLDLTYSVLFNLASQYSANEMYAEALNTYQVIVKNKMFSNAGRLKVNMGNIYLKQRNYSKAIKFYRMALDQIPSVHKEMRIKIMQNIGITFIKTGQYSDAINSFEHIMSMAPSLKAGFNLILSCFAIGDREKMKKAFQKLIAVPLEIDEDDKYISPSDDPHTNLLIEAIKNDHLRQMERERKAMAEKYIMTAAKLIAPVIEASFAVGYNWCVEVVKASQYVELANDLEINKAITYLRQKDFNQAVDTLKMFEKKDSRVKSAAATNLSFLYYLENEFAQASSYADLAVNSDRYNPSALTNKGNTVFANGDYEKAAEFYKEALRNDSSCTEALYNIGLTYKKLNRLDEALDSFLKLHAILRNSAQVLCQIANIYELMEDPNQAIEWLMQLISVVPTDSQALSKLGELYDSEGDKSQAFQYYYESYRYFPSNIEVIEWLGAYYIDTQFCEKAIQYFERASLIQPTQVKWQLMVASCFRRSGNYQKALDTYKEIHRKFPENVECLRFLVRLCTDIGLKEVQEYATKLKRLEKMKEMREQRIKSGRDSSGGSRSKREGSAGSDSGQNNSASSKSERLSAKLRALPGTDEPYESSGNKEIDASYVDPLGPQIERPKTAAKKRIDEDDFADEELGDDLLPE

By UniProt entry, the sequences of proteins in these tests, tags left out. Where a name states a change or a piece, a line headed by the entry shows the natural chain unless it says otherwise.
UniProt Q6NZQ0: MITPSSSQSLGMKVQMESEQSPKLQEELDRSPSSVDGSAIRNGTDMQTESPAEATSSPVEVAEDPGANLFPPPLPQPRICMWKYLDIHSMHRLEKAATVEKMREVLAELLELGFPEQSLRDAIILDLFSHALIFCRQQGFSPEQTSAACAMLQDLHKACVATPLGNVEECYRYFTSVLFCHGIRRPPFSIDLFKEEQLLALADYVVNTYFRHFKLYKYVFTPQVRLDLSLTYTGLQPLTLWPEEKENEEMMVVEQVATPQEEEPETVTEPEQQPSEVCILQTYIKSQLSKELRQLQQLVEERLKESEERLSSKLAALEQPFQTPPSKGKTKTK
UniProt Q61025: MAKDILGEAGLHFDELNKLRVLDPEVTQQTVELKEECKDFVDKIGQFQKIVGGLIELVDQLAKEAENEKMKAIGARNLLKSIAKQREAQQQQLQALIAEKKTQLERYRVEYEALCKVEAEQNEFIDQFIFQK

These molecules were tested against CCDC189-EGFP (EGFP-tagged Ccdc189 knock-in allele), in mouse testes (mouse) (UniProt Q6NZQ0) (assay: affinity purification with mass spectrometry; co-IP with an anti-GFP antibody from testes of Ccdc189-EGFP mice, compared to wild-type control mice, then mass spectrometry).

binding, binds:
IFT20 in the testes of Ccdc189-EGFP mice (from UniProt Q61025 1-132)
B1
B2
